Measured values as given in PubChem BioAssay AID504834 (National Center for Advancing Translational Sciences (NCATS), 2011).
About 22,000 (6.9%) of roughly 320,000 compounds were called active. Inconclusive means that the source gave no clear call. Such entries were picked first, then a sample of the others. Calls follow the shape of the dose curve; as a rule, active = well fitted inhibition curve with a large enough effect; inconclusive = small, poorly fitted or top-dose-only effect, or another doubt; inactive = no such curve, though single readings can be large or run the other way. Potencies beside an inconclusive call are fits to weak or partial responses and may not hold up.

Test: Primary qHTS for delayed death inhibitors of the malarial parasite plastid, 96 hour incubation
Conditions: P. falciparum luciferase reporter growth; series mostly up to 28.7 µM; activity change, negative = inhibition: at the top concentration
How it was run: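 Luminescence readout: decreased luciferase signal marks inhibited growth of reporter-expressing P. falciparum in infected red cells (2% hematocrit, 0.05% parasitemia final), exposed to compound two generations (96 h, 37 C, 5% CO2).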
% is scaled to controls: 0 for no effect and ±100 for the full control effect; potency is read from the fitted curve at half-maximal effect.

| Compound | Potency | activity change, negative = inhibition |
| --- | --- | --- |
| CC1CCC2(CC1)NC(=O)N(CC(=O)NCc1ccc(F)cc1)C2=O (stereo not given) | inconclusive: 18.5 µM [inhibitor, single point] | – |
| c1ccc(Cn2c(-c3ccccc3)nc3nc4ccccc4nc32)cc1 | inconclusive: 18.5 µM [inhibitor, single point] | – |
| Cn1nc(C(=O)Nc2c(-c3ccccc3)nc3sccn23)c2ccccc2c1=O | inconclusive: 9.28 µM [inhibitor, single point] | – |
| COc1ccc([N+](=O)[O-])cc1NC(=O)C(C)Sc1nc(-c2ccccc2)cs1 (stereo not given) | inconclusive: 0.329 µM [inhibitor, full curve, poor fit] | – |
| O=C(CSc1nc2ccc(Nc3nc(N4CCOCC4)nc(N4CCOCC4)n3)cc2s1)Nc1ccccc1Cl | active: 2.62 µM | – |
| CC(C)S(=O)(=O)c1cnc(-c2ccccn2)nc1N | inconclusive: 2.94 µM [inhibitor, single point] | – |
| CSCCC(NC(=O)c1ccc(Cl)cc1)C(=O)OCC(=O)Nc1ccc(C#N)cc1 (stereo not given) | – | inactive: 23.9% |
| Cc1cc(C)n(-c2nnc(C)n2N)n1 | inconclusive: 11.7 µM [inhibitor, single point] | – |
| COCC(C)NC(=O)C1c2ccccc2Oc2ccccc21 (stereo not given) | inconclusive: 18.5 µM [inhibitor, single point] | – |
| OCC12COC3c4ccccc4C(OC1)N32 (stereo not given) | inconclusive: 18.5 µM [inhibitor, single point] | – |
| CCC(Sc1ccccn1)C(=O)Nc1cccc([N+](=O)[O-])c1 (stereo not given) | – | inactive: 1.36% |
| COc1cccc(CNC(=O)c2c[nH]n3c(=O)c(Cl)c(C)nc23)c1 | inconclusive: 20.8 µM [inhibitor, partial curve, poor fit] | – |
| COc1ccc(NC(=O)[C@@H]2[C@@H]3C(=O)N(C4CCCCC4)C(=O)[C@@H]3C3c4ccccc4C=CN32)cc1 (stereo not given in full) | active: 14.7 µM | – |
| Cn1c(=NC(=O)CSCC(=O)N2CCOCC2)sc2ccccc21 | – | inactive: 8.65% |
| NC(=O)CN1CCN(c2cccc(Cl)c2)CC1 | inconclusive: 4.15 µM [inhibitor, single point] | – |
| COc1ccc(-n2c(N)cc(=O)[nH]c2=O)cc1 | – | inactive: 22.3% |
| CC1CCCN(c2ccc([N+](=O)[O-])cc2C(=O)c2ccccc2)C1 (stereo not given) | – | inactive: -0.0522% |
| C=CCn1c2ccccc2c2nnc(SCCCn3c(=O)[nH]c4ccccc43)nc21 | – | inactive: -11.3% |
| COc1cc(OC)c(C2=NOC(C(=O)N3CCN(C(=O)c4ccco4)CC3)C2)cc1Cl (stereo not given) | inconclusive: 0.586 µM [inhibitor, single point] | – |
| O=C1CN(S(=O)(=O)c2cccc(Cl)c2Cl)CCN1 | – | inactive: 13.8% |

Two of the compounds above, with each value named:
CCC(Sc1ccccn1)C(=O)Nc1cccc([N+](=O)[O-])c1 (stereo not given)
  activity change, negative = inhibition: inactive: 1.36%
COc1cccc(CNC(=O)c2c[nH]n3c(=O)c(Cl)c(C)nc23)c1
  Potency: inconclusive: 20.8 µM [inhibitor, partial curve, poor fit]
